Source: PMC6245935, “Fructose-1,6-bisphosphate aldolase encoded by a core gene of Mycoplasma hyopneumoniae contributes to host cell adhesion” (Veterinary Research, 2018)
These are yes or no findings as the source states them, for the method shown. A result given as binding can be weak or reduced; the word gives no strength. Where a sequence is shown, tags or fusion partners need not be part of it.

Biological target: T1, recombinant fructose-1,6-bisphosphate aldolase (rFBA) of Mycoplasma hyopneumoniae strain 168 (Mycoplasma hyopneumoniae strain 168) (UniProt E4QS16)
T1 sequence: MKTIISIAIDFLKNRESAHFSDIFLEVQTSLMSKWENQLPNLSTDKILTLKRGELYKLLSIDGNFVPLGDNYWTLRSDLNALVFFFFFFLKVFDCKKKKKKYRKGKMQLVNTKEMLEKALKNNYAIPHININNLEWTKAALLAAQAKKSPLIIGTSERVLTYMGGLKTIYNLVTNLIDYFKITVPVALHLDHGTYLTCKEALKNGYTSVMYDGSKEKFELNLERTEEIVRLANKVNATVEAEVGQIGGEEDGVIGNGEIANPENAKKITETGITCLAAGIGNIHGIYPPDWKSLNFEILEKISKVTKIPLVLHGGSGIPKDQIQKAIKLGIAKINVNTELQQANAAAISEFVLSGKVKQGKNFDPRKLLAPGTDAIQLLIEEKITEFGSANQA
Experiment: far-Western, overlay or dot blot; 20 ug rFBA (or BSA as negative control) separated by SDS-PAGE and transferred to PVDF; blocked with 5% skimmed milk; incubated with 5 ug/mL fibronectin; detected with rabbit anti-fibronectin antibody and HRP anti-rabbit IgG, ECL; both purified

fibronectin was tested, and the binding was “binds”.
